From publication PMC5493781
These are yes or no findings as the source states them, for the method shown. In cells and extracts the contact can be indirect. Here binding means that the protein was enriched with, or labelled near, the bait; the list need not be complete. Sequences can lack the tags named with a protein. Values belong to the molecule of their own block, whether it stands above or below them.

Protein sequences, listed by entry. Tags and fused reporters are not part of them.
UniProt Q5VT06: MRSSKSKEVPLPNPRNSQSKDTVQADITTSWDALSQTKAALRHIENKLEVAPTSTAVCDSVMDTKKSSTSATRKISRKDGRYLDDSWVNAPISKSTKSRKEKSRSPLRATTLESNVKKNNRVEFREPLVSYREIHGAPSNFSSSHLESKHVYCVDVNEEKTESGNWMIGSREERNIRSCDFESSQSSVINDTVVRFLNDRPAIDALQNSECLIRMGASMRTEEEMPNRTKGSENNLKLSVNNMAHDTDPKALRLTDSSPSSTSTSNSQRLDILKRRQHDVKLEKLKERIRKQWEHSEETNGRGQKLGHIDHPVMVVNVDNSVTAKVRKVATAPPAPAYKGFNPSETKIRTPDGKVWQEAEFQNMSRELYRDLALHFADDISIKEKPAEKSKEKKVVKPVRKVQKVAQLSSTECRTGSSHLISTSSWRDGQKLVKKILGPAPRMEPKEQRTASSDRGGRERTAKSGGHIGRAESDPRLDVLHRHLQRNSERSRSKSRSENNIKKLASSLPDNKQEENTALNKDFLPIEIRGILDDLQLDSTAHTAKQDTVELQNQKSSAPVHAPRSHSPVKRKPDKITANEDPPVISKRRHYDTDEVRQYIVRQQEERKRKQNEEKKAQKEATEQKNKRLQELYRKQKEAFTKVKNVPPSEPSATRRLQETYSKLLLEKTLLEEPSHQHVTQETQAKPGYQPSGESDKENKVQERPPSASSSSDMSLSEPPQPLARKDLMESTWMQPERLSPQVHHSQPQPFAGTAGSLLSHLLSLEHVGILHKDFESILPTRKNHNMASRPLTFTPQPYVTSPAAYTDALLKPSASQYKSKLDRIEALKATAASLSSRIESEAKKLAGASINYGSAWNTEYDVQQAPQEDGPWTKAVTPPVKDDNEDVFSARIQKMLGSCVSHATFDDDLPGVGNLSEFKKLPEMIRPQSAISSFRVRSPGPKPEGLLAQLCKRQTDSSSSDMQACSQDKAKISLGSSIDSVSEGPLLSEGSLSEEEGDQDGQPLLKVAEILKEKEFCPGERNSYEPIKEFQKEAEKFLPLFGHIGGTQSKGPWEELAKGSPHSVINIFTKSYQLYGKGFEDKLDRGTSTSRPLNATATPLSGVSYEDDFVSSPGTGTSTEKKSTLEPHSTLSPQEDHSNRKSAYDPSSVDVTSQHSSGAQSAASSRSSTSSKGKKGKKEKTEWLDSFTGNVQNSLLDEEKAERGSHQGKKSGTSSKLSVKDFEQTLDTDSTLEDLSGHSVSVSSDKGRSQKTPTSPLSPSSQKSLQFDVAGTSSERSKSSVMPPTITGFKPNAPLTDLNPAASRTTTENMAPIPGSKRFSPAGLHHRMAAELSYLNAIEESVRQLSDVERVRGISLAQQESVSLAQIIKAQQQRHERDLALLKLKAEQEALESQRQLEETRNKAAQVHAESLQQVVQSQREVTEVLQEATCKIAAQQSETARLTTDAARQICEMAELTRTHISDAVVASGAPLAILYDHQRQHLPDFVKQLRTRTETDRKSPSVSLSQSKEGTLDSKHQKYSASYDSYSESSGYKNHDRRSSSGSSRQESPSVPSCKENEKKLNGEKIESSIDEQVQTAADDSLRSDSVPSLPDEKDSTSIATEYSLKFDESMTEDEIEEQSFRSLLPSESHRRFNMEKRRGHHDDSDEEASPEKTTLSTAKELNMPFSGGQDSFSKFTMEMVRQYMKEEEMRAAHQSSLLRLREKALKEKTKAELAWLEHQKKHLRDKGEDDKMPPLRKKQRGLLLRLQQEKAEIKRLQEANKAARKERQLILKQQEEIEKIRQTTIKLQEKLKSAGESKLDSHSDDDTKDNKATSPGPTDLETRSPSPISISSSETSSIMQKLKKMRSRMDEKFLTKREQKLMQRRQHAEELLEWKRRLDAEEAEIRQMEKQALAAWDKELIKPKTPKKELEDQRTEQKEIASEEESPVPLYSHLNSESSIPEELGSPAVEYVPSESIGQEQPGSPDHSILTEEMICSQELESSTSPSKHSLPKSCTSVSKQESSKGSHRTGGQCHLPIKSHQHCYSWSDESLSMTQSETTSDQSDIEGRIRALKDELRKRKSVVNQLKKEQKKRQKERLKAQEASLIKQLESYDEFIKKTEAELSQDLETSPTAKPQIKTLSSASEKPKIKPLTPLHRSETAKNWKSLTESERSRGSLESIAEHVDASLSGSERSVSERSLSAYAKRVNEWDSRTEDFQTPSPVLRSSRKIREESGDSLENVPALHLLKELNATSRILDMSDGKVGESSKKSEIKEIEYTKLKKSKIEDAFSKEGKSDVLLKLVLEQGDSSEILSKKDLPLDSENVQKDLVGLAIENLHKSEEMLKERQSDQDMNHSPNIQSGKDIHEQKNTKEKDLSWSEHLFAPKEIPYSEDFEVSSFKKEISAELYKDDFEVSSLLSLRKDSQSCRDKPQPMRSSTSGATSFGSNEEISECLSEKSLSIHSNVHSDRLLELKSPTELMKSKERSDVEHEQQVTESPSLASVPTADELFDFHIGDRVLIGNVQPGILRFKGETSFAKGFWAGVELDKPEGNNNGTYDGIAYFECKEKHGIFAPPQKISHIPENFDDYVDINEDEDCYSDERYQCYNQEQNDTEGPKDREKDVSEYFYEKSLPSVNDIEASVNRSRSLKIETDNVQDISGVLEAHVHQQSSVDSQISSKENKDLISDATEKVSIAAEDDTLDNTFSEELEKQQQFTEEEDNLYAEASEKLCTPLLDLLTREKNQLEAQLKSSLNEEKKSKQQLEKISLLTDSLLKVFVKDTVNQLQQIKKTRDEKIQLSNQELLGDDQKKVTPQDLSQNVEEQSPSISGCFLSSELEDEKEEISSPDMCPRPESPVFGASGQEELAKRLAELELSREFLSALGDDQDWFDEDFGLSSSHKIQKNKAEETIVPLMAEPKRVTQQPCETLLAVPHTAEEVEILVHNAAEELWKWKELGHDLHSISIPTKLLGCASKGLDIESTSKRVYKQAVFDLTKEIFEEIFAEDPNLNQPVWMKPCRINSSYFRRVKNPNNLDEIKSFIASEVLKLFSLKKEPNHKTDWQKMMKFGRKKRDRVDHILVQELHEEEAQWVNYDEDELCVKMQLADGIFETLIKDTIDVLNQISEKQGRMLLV
UniProt Q15154: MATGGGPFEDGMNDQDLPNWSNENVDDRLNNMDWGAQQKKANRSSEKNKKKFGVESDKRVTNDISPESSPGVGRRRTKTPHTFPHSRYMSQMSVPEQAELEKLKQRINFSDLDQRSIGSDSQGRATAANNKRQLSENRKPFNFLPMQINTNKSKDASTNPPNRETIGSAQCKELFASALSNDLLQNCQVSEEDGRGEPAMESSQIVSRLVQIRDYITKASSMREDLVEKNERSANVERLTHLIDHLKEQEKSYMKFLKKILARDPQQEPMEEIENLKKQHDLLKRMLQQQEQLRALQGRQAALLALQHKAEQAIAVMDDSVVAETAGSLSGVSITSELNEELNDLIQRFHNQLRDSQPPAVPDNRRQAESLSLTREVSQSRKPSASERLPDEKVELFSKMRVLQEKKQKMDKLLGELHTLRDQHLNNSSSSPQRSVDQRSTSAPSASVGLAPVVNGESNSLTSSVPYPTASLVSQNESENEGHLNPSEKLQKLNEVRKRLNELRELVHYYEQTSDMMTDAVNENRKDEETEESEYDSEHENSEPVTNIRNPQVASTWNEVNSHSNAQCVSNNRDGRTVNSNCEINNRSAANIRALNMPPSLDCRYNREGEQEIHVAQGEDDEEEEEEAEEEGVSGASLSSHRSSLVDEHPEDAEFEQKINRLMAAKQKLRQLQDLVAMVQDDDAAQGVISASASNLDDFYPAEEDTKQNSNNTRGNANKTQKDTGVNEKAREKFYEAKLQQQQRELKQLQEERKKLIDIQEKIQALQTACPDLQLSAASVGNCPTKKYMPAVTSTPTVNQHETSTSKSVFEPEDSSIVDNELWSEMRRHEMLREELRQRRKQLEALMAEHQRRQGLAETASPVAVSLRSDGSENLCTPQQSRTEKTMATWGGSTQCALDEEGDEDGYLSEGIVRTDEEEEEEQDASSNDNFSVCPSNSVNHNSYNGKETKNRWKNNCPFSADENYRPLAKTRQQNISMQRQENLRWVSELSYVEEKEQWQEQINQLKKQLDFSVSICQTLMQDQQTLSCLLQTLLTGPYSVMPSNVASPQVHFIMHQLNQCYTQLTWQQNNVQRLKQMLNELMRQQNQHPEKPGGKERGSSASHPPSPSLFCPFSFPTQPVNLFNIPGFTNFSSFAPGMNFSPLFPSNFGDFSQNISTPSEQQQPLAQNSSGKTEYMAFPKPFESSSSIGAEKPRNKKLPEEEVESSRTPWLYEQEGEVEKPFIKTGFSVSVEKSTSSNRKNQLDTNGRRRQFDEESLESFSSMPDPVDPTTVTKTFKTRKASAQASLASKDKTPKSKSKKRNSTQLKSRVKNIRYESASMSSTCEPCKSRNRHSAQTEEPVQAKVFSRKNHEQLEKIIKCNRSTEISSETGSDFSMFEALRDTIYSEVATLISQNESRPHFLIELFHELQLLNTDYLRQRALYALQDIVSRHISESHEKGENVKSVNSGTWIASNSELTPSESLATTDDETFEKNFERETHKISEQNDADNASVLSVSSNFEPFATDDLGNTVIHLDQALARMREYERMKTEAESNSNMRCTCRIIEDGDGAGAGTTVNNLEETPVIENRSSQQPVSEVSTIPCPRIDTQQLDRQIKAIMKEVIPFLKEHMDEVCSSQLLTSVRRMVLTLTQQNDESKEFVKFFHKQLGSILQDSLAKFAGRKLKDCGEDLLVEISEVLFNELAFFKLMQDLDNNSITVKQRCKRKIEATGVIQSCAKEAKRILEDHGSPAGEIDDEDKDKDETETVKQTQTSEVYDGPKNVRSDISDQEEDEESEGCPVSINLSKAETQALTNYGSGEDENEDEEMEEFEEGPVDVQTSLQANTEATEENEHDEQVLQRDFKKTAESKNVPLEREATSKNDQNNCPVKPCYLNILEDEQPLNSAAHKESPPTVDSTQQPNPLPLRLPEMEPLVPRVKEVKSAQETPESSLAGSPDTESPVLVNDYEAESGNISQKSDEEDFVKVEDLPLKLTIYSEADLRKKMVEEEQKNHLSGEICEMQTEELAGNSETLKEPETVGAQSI

Target: T1, FLAG-CEP19 (UniProt Q96LK0)
T1 sequence: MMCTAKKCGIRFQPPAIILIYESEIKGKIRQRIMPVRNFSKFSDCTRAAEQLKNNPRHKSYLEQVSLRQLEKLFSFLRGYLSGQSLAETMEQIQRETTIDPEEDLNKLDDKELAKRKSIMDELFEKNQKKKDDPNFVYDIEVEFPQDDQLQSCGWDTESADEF
Assay: affinity purification with mass spectrometry; FLAG-CEP19 from tetracycline-induced 293 cells purified on M2-FLAG magnetic beads, on-bead digest; lysis in 50 mM HEPES-KOH pH 8.0, 100 mM KCl, 2 mM EDTA, 0.1% NP-40, 10% glycerol; FLAG-only controls, SAINTexpress scoring

binding: binds
Molecule: CEP350 (from UniProt Q5VT06 1-3117)

binding: binds
Molecule: PCM1 (from UniProt Q15154 1-2024)

binding: binds
B1: RABL2A (protein, UniProt Q9UBK7 1-228)
chain: MAEDKTKPSELDQGKYDADDNVKIICLGDSAVGKSKLMERFLMDGFQPQQLSTYALTLYKHTATVDGKTILVDFWDTAGQERFQSMHASYYHKAHACIMVFDIQRKVTYRNLSTWYTELREFRPEIPCIVVANKIDDINVTQKSFNFAKKFSLPLYFVSAADGTNVVKLFNDAIRLAVSYKQNSQDFMDEIFQELENFSLEQEEEDVPDQEQSSSIETPSEEVASPHS

binding: binds
B2: FGFR1OP (FOP) (protein, UniProt O95684 1-399)
chain: MAATAAAVVAEEDTELRDLLVQTLENSGVLNRIKAELRAAVFLALEEQEKVENKTPLVNESLKKFLNTKDGRLVASLVAEFLQFFNLDFTLAVFQPETSTLQGLEGRENLARDLGIIEAEGTVGGPLLLEVIRRCQQKEKGPTTGEGALDLSDVHSPPKSPEGKTSAQTTPSKIPRYKGQGKKKTSGQKAGDKKANDEANQSDTSVSLSEPKSKSSLHLLSHETKIGSFLSNRTLDGKDKAGLCPDEDDMEGDSFFDDPIPKPEKTYGLRKEPRKQAGSLASLSDAPPLKSGLSSLAGAPSLKDSESKRGNTVLKDLKLISDKIGSLGLGTGEDDDYVDDFNSTSHRSEKSEISIGEEIEEDLSVEIDDINTSDKLDDLTQDLTVSQLSDVADYLEDVA
